From PubChem BioAssay AID1469 (National Center for Advancing Translational Sciences (NCATS), 2008)
The whole screen tested about 280,000 compounds, of which about 180 (0.064%) were called active. This list was built around the results that the source calls inconclusive (neither active nor inactive); the mix of calls is not that of the screen. Calls come from the whole dose curve; as a rule, active = well fitted inhibition curve with a large enough effect; inconclusive = small, poorly fitted or top-dose-only effect, or effect the other way; inactive = flat fitted curve, though single readings scatter. Where the call is inconclusive, the potency comes from a doubtful curve fit.

The chains behind the UniProt entries cited, without tags or fusion partners. Where a name states a change or a piece, a line headed by the entry shows the natural chain unless it says otherwise.
UniProt P10828: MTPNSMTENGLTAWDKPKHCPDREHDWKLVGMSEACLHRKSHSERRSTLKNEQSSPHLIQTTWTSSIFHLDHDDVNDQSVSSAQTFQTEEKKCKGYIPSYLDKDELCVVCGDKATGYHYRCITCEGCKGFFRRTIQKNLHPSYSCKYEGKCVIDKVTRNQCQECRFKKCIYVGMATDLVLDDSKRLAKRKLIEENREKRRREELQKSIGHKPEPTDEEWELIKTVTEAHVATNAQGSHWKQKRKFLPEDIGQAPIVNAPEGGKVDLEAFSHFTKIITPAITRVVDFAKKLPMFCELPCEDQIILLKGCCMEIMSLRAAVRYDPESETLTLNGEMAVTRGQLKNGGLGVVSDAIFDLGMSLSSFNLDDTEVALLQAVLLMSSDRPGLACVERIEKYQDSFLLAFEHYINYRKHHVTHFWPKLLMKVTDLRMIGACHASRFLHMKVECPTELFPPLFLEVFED

The molecules below were run against Thyroid hormone receptor beta (Homo sapiens) (UniProt P10828) (assay: qHTS for Inhibitors of the Interaction of Thyroid Hormone Receptor and Steroid Receptor Coregulator 2). Settings: TRbeta-SRC2 peptide binding, fluorescence polarization, receptor liganded with 1 µM T3; series mostly up to 106 µM; activity change, negative = inhibition: at the top concentration.
How it was run: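 Decrease in fluorescence polarization of 20 nM Texas Red SRC2 coactivator peptide flagged inhibition of its binding to 0.6 uM TRb LBD; 1 uM T3 included, incubation 5 hr, ex 555/em 632 nm.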
Note: nearly all actives have a fitted effect of over 50% in size.
Potency is the fitted concentration of half-maximal effect.
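Throughout, for activity change, negative = inhibition: plate controls were bound peptide for no effect and peptide without receptor for full effect.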

SMILES	Potency	activity change, negative = inhibition
COC(=O)c1c(NC(=O)/C=C/C(=O)O)sc(C)c1-c1ccc(C(C)C)cc1	inconclusive: 35.5 µM [inhibitor, partial curve]	–
COc1ccc(N(C)S(=O)(=O)c2ccc3c(c2)CCN3C(=O)CCC(=O)O)cc1	–	inactive: 5.1%
CC(=O)N1CCN(c2csc3ccc(Cl)cc3c2=O)CC1	–	inactive: 12.1%
O=C(N/N=C/c1c[nH]c2ccccc12)c1cc(-c2ccc(-c3ccccc3)cc2)n[nH]1	inconclusive: 50.1 µM [activator, single point]	–
CCCCC1=CC2=CC(=O)C(C)(OC(=O)c3cnc4ccccc4n3)C(=O)C2=CO1 (stereo not drawn)	inconclusive: 50.1 µM [inhibitor, partial curve]	–
CCOC(=O)CC1C(=O)NCCN1c1nc2c(C)cccn2c(=O)c1/C=C1\SC(=S)N(C(C)CC)C1=O (stereo not drawn)	inconclusive: 79.4 µM [activator, single point]	–
CCC(Sc1nc2nccnc2c(=O)n1Cc1ccc(C)cc1)C(=O)NC1CCCCC1 (stereo not drawn)	–	inactive: 1.52%
O=C(NCc1cccs1)c1ccc([N+](=O)[O-])cc1	inconclusive: 1.26 µM [activator, single point]	–
CC[n+]1c(/C=C/Nc2ccccc2)sc2ccccc21	inconclusive: 50.1 µM [activator, partial curve]	–
COc1cc2ncc3c(-c4ccccc4)nn(-c4ccc(C)cc4)c3c2cc1OC	–	inactive: 7.74%
Cc1ccc(CSc2nc3c(c(=O)[nH]2)C(c2cccc(F)c2F)CC(=O)N3)cc1 (stereo not drawn)	inconclusive: 56.2 µM [activator, single point]	–
CCOc1cc(/C=C2/C(=O)N(c3ccccc3)N=C2C)ccc1OC(=O)c1ccco1	inconclusive: 10 µM [inhibitor, full curve, poor fit]	–
Cc1cnc(C(=O)OCC(=O)NC2CCCCCCC2)cn1	–	inactive: 6.26%
Cc1ccccc1-n1ncc2c(SCC(=O)NCc3cccs3)ncnc21	inconclusive: 44.7 µM [inhibitor, partial curve, poor fit]	–
Cc1cc2ccccc2n1CCNC(=O)c1ccc(S(=O)(=O)N2CCOCC2)cc1	inconclusive: 50.1 µM [inhibitor, partial curve]	–
O=C1CC(=O)N(Cc2ccco2)C(=S)N1	inconclusive: 39.8 µM [activator, partial curve]	–
Cc1ccc(NC(=O)c2ccccc2NS(=O)(=O)c2ccc(Cl)s2)cc1	–	inactive: 9.82% [at 53 µM]
O=C(CCCn1c(=O)oc2ccccc21)N1CCN(c2ccc(F)cc2)CC1	–	inactive: 0.891%
CSc1nnc2c3ccccc3n(Cc3ccccc3)c2n1	–	inactive: 4.32%
CCOC(=O)c1cn(CC)c2ccc(S(=O)(=O)N3CC(C)CC(C)C3)cc2c1=O (stereo not drawn)	inconclusive: 22.4 µM [activator, full curve]	–
COc1c(O)cccc1O	–	inactive: 3.57%
Cc1ccc(O)c(C(=O)c2cnn(C(=O)COc3ccc(Cl)cc3)c2)c1	–	inactive: 1.84%
CCOC(=O)c1c(C)oc2nc(C)nc(NCc3ccccc3OC)c12	–	inactive: 6.3%
COc1ccc(-n2cccc2/C=C2\C(=N)N3N=C(c4ccco4)SC3=NC2=O)cc1	inconclusive: 50.1 µM [activator, partial curve]	–
Oc1ccc(N=Cc2ccc(OCc3ccccc3)cc2)cc1	active: 39.8 µM	–

Some of these compounds in order of heavy-atom count, rising.
SMILES	Potency	activity change, negative = inhibition
CCOC(=O)c1cn(CC)c2ccc(S(=O)(=O)N3CC(C)CC(C)C3)cc2c1=O (stereo not drawn)	inconclusive: 22.4 µM [activator, full curve]	–
CCOc1cc(/C=C2/C(=O)N(c3ccccc3)N=C2C)ccc1OC(=O)c1ccco1	inconclusive: 10 µM [inhibitor, full curve, poor fit]	–
CCC(Sc1nc2nccnc2c(=O)n1Cc1ccc(C)cc1)C(=O)NC1CCCCC1 (stereo not drawn)	–	inactive: 1.52%

Additional results follow.

SMILES	Potency	activity change, negative = inhibition
CCC(C(=O)N1CCN(c2ccccc2)CC1)n1nc(C)c2sc3ccccc3c2c1=O (stereo not drawn)	–	inactive: -6.06%
CC(C)COP(=O)(OCC(C)C)C(O)c1ccc(N(C)C)cc1 (stereo not drawn)	–	inactive: 3.82%
O=C(O)c1ccc(Cl)c2c1C1C=CCC1C(c1ccccn1)N2 (stereo not drawn)	inconclusive: 44.7 µM [inhibitor, partial curve]	–
CCCNC(=O)Cn1c(=O)n(C)c2ccccc21	active: 31.6 µM	–
Cc1[nH]c(N=Nc2ccccc2)nc1N=Nc1ccccc1	–	inactive: 1.53%
Oc1ccc(N=Cc2ccc(-c3cccs3)s2)cc1	active: 31.6 µM	–
N#Cc1c(NC(=O)c2ccccc2Cl)n(Cc2ccccc2)c2nc3ccccc3nc12	inconclusive: 3.98 µM [inhibitor, full curve]	–
O=S(=O)(O)c1ccc(N=Nc2cc(S(=O)(=O)O)c3ccccc3c2O)c2ccccc12	inconclusive: 35.5 µM [activator, full curve]	–
O=C(Nc1cnc2ccccc2c1)c1cccc(-n2cnnn2)c1	inconclusive: 31.6 µM [inhibitor, partial curve]	–
C/C(=C\C(=O)c1ccccc1)Nc1ccc(O)cc1	inconclusive: 39.8 µM [inhibitor, partial curve]	–
Cc1oc2c(c1C(=O)c1ccccc1)C(=O)C(=O)c1ccccc1-2	inconclusive: 25.1 µM [inhibitor, full curve]	–
Cn1c(SCC(=O)NNC(=O)Nc2ccc(Cl)cc2)nnc1-c1ccccc1	inconclusive: 31.6 µM [inhibitor, single point]	–
Cc1ccc2oc(=O)c3cnn(CC(=O)NCCCOC(C)C)c3c2c1	inconclusive: 17.8 µM [inhibitor, partial curve]	–
O=S(=O)(c1ccccc1)N1N=C(c2cccs2)CC1c1ccc(Br)cc1 (stereo not drawn)	inconclusive: 44.7 µM [activator, partial curve]	–
N#CC1(C#N)C(c2ccccc2)OC23CCCCC2C1(C#N)C(=N)O3 (stereo not drawn)	active: 44.7 µM	–
Cn1c(=O)c2c(nc(SCC(=O)Nc3ccc(F)cc3F)n2Cc2ccccc2)n(C)c1=O	inconclusive: 8.91 µM [inhibitor, full curve, poor fit]	–
Cc1ccc(NC(=O)Cn2c(=O)n(-c3ccc(C)cc3)c(=O)c3ccc(C(=O)NCc4ccccc4Cl)cc32)cc1	–	inactive: 1.85%
Cc1cc(C)cc(NC(=O)CSc2nnc(COc3ccccc3Cl)o2)c1	–	inactive: -2.03%
N#Cc1c(NC(=O)c2ccc(Br)o2)n(-c2ccccc2)c2nc3ccccc3nc12	inconclusive: 28.2 µM [inhibitor, full curve]	–
CCC(/C=C1\Sc2ccc(OC)cc2N1CCO)=C\c1sc2ccc(OC)cc2[n+]1CCO	inconclusive: 6.31 µM [activator, full curve]	–
CC(=O)Nc1ccc(S(=O)(=O)Nc2nc3ccc([N+](=O)[O-])cc3s2)cc1	–	inactive: 15.4%
C=CCn1c(SCCC(=O)O)nnc1-c1cccs1	–	inactive: -4.66%
COc1ccc(C2NC(=O)c3c(sc4c3CCN(C)C4)N2)cc1O (stereo not drawn)	–	inactive: 4.39%
Cc1cc(N)ccc1-n1c(C)ccc1C	active: 7.94 µM	–
O=C(N=Nc1c(O)[nH]c2ccc([N+](=O)[O-])cc12)c1ccccc1[N+](=O)[O-]	–	inactive: 2.33%

SMILES	Potency	activity change, negative = inhibition
N#CC1=C(N)OC2=C(CN(Cc3ccccc3)C/C2=C\c2cccnc2)C1c1cccnc1 (stereo not drawn)	inconclusive: 39.8 µM [inhibitor, partial curve]	–
O=C(O)/C=C\C(=O)Nc1ccc(N2CCN(c3ccc(Cl)cc3)CC2)cc1	inconclusive: 44.7 µM [inhibitor, partial curve]	–
CCCN(CCC)c1ccc(/C=C/c2ccc3cc(OCC)ccc3n2)cc1	inconclusive: 7.94 µM [activator, full curve, poor fit]	–
CCOC(=O)Cc1cc(=O)n2[nH]cc(-c3cccc(Br)c3)c2n1	inconclusive: 25.1 µM [activator, partial curve]	–
COc1c(O)ccc(/C=C(\C#N)c2nc3ccccc3[nH]2)c1[N+](=O)[O-]	–	inactive: 0.645%
Oc1ccc(Br)cc1C=Nc1ccc(Cl)cc1	–	inactive: -4.23%
CCN1C=C(Cc2ccc(OC)cc2)C2=C(C1)C(c1ccc(OC)cc1)C(C#N)=C(N)O2 (stereo not drawn)	inconclusive: 44.7 µM [inhibitor, partial curve]	–
Cc1cc(O)c(C(C)C)cc1N=Cc1ccccc1O	inconclusive: 70.8 µM [inhibitor, partial curve]	–
CCC(=O)Nc1cc2c(cc1C(=O)c1ccccc1)OCCO2	inconclusive: 11.2 µM [activator, full curve, poor fit]	–
Cc1nn(-c2ccccc2)c2c1cc1c(=O)[nH]c(=O)nc-1n2-c1cccc(Cl)c1	–	inactive: -1.8%
CCOc1cc(/C=C2\SC(=S)N(Nc3ccccc3)C2=O)ccc1O	inconclusive: 31.6 µM [activator, partial curve]	–
NCCNc1ccc([N+](=O)[O-])cc1	–	inactive: -1.2%
CCOC(=O)OCC1OC(C#Cc2ccccc2)C=CC1OC(=O)OCC (stereo not drawn)	–	inactive: 5.4% [at 11.2 µM]
COc1ccc(-c2oc(NC(=O)CSc3nncn3C)c(C#N)c2-c2ccc(OC)cc2)cc1	inconclusive: 22.4 µM [inhibitor, single point]	–
COn1c(C)c(C)c2c3nonc3ccc21	inconclusive: 50.1 µM [inhibitor, partial curve]	–
COC(=O)CNC(=O)CSc1nnc(C)c(=O)[nH]1	inconclusive: 0.0891 µM [inhibitor, full curve, poor fit]	–
CCc1ccccc1N1C(=O)N(CC(=O)c2ccc(Cl)cc2)c2ccccc2S1(=O)=O	–	inactive: -1.75%
CCOC(=O)C(NC(=O)Nc1ccc(O)cc1)(c1ccccc1)C(F)(F)F (stereo not drawn)	inconclusive: 17.8 µM [inhibitor, full curve]	–
COc1ccc2c(c1)-c1nc(/N=C/c3c(O)ccc4ccccc34)sc1CC2	inconclusive: 39.8 µM [inhibitor, partial curve]	–
CCn1cc(S(=O)(=O)c2cc(C)cc(C)c2)c(=O)c2cc(F)c(N3CCCC3)cc21	inconclusive: 4.47 µM [inhibitor, full curve, poor fit]	–
Cc1cc(C)cc(OCC(=O)NCCc2nc3ccccc3[nH]2)c1	inconclusive: 0.355 µM [inhibitor, full curve]	–
CCc1cccc2c1NC1(CCCC1)CC2C (stereo not drawn)	active: 28.2 µM	–
O=C(O)c1cc(N=Nc2ccc(-c3ccc(N=Nc4ccc(O)c(C(=O)O)c4)cc3)cc2)ccc1O	inconclusive: 35.5 µM [activator, partial curve]	–
